Test results from patent US20050058640A1 (BAXTER INTERNATIONAL, published 2005).
These are yes or no findings as the source states them, for the method shown. A result given as binding can be weak or reduced; the word gives no strength.

Amino acid sequences for entries named in this document (tags omitted). A change or cut given only in a name is not applied to a line headed by its entry.
UniProt P00740: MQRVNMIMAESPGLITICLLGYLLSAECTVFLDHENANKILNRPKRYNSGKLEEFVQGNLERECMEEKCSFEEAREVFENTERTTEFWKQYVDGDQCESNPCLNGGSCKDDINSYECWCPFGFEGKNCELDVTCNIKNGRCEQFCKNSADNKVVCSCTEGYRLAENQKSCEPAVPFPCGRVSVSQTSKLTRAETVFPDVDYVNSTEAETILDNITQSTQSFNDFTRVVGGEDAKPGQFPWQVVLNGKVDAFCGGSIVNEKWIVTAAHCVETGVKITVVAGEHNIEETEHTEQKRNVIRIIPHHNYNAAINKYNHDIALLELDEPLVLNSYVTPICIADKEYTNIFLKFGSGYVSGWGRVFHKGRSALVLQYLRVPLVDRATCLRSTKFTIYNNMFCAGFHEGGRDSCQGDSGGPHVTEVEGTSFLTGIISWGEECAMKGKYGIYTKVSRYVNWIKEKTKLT
UniProt P00741: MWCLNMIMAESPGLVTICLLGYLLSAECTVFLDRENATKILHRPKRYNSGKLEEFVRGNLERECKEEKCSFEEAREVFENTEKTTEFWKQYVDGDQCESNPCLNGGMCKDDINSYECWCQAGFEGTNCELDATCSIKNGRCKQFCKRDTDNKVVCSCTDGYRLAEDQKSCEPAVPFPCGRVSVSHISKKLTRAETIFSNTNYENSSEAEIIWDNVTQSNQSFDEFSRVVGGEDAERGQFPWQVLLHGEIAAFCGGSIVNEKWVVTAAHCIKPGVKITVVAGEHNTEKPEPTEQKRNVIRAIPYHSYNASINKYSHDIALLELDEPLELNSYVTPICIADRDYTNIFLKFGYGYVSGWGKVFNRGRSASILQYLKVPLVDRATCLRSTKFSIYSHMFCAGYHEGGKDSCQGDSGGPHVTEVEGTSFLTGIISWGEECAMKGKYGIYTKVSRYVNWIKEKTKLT

What was measured:
human factor IXa [1] = molecular target: T1, human factor IXa (human, UniProt P00740 47-191; P00740 227-461); experiment: SPR (BIACORE): antibody captured by anti-mouse Fc gamma (RAMFc) on a CM5 chip, 5.56 nM FIXa injected, 5 mM CaCl2; 5 min association, 12 min dissociation
human factor IXa [2] = molecular target: T1, human factor IXa; experiment: SPR (BIACORE)
human factor IXa [3] = molecular target: T1, human factor IXa; experiment: SPR (BIACORE), 3 mM EDTA
human factor IXa [4] = molecular target: T1, human factor IXa; experiment: SPR (BIACORE), 5.56 nM FIXa, 5 mM CaCl2
bovine FIXa (bovine) = bovine FIXa (bovine) (UniProt P00741); experiment: ELISA and Western blot
human factor IXa [5] = molecular target: T1, human factor IXa; experiment: ELISA and Western blot

Measured: binding

B1: antibody 224F3 (antibody, V domains shown)
VH: QVQMQQSGAELVKPGASVKLSCKASGYTFTSQDINWVRQRPEQGLEWIGWIFPGDGSTKYNEKLKGKATLTTDKSSSTAFMQLSRLTSEDSAVYFCARSAYYRYDGSYYYAMDYWGQGTSVTVSS
VL: QIVLTQSPAIMSASLGEEITLTCSASSSVSYMLWYQQKSGTSPKLLIYTTSNLASGVPSRFSGTGSGTFYSLTISSVEAEDAADYYCHQWSSYPRTFGGGTKLEIKR
binds: human factor IXa [1] | human factor IXa [2] | human factor IXa [3] | human factor IXa [4] | bovine FIXa (bovine) | human factor IXa [5]
